Experimental data reported in patent US20240317746A1, “CRYSTALLINE FORMS OF AN AZETIDINE PARP1 INHIBITOR” (XinThera, Inc., priority 2023, published 2024).
Entries after “also recorded” stand apart in the source; their conditions may differ.

Experiments:
[1] = Polymorph screening (slurry conversion, cooling, evaporation, anti-solvent, cyclic heating-cooling, salt break)
Experimental: Form I was obtained from most polymorph screening experiments. […]
Cyclic heating-cooling experiments were carried out in Crystal 16 Parallel Crystallizer. About 20 mg of Compound 1 (starting material) was added into 1 mL solvents, and a heating-cooling program was performed: • 1. Equilibrated first at 20° C., and heated to 75 or 100° C. at 0.2° C./min (the elevated temperature is set according to boiling point of solvent). • 2. Held at 75 or 100° C. for 1 h. • 3. Cooled to 20° C. at 0.2° C./min and hold for 1 h. • 4. Repeated the above procedures once.
Turbidimeter from Crystal 16 recorded if solids were completely dissolved during heating. Form I was obtained in most solvent systems. […]

[2] = Salt screening and re-preparation of target forms; conditions: RT
Experimental: Based on the results of pKa and estimated solubility, salts were prepared with 11 acids in three solvent systems of EtOH, THF and acetone/water (19/1, v/v).
Then 1.1 eq. of acid was added into the suspension at RT for reactive crystallization (liquid acid was diluted in corresponding solvent and added into the suspension), as well as additional 2.2 eq. of HCl. 0.5 mL more solvent was added to dilute several thick systems at 4 h (highlighted as * in the summary table). If clear solution or oil was obtained, various crystallization methods were used to induce precipitation. Solids were collected by filtration or centrifugation, and dried under vacuum at 40° C. for ˜4 h. The experimental details and characterization results are presented in the following parts.
Detailed experimental procedures are described in Table 32.

For `C[C@@H]1[C@@H](Oc2ccc(C(=O)NC3CC3)nc2)CN1Cc1cnc2cc(Cl)c(=O)[nH]c2c1` [Compound 1, 5-(((2R,3S)-1-((7-chloro-6-oxo-5,6-dihydro-1,5-naphthyridin-3-yl)methyl)-2-methylazetidin-3-yl)oxy)-N-cyclopropylpicolinamide], the “Result of cyclic heating-cooling (solid form)” value ([1]; 2-MeTHF, 75° C.) was “Form I”, the “Result of cyclic heating-cooling (solid form)” value ([1]; ACN/Water (9/1), 75° C.) was “Form I” and the “Result of cyclic heating-cooling (solid form)” value ([1]; DMAc/Toluene (1/2), 100° C.) was “Solution”. For the same molecule, the “Result of cyclic heating-cooling (solid form)” value ([1]; EtOH, 75° C.) was “Form I”, the “Result of cyclic heating-cooling (solid form)” value ([1]; MEK, 75° C.) was “Form I” and the “Result of cyclic heating-cooling (solid form)” value ([1]; MIBK, 100° C.) was “Form I”. For the same molecule, the “Result of cyclic heating-cooling (solid form)” value ([1]; n-Butanol/Anisole (1/1), 100° C.) was “Form I”.

With `C[C@@H]1[C@@H](Oc2ccc(C(=O)NC3CC3)nc2)CN1Cc1cnc2cc(Cl)c(=O)[nH]c2c1` [Freebase Form I, 5-(((2R,3S)-1-((7-chloro-6-oxo-5,6-dihydro-1,5-naphthyridin-3-yl)methyl)-2-methylazetidin-3-yl)oxy)-N-cyclopropylpicolinamide] the “Salt screening result (solid form)” value ([2]; Citric acid 1.1 eq., Acetone/Water (19/1)) was “Citrate Form I”, the “Salt screening result (solid form)” value ([2]; Citric acid 1.1 eq., EtOH) was “FB Form I; also recorded: Freebase Form I” and the “Salt screening result (solid form)” value ([2]; Citric acid 1.1 eq., THF) was “FB Form I; also recorded: Freebase Form I”. The “Salt screening result (solid form)” value ([2]; Fumaric acid 1.1 eq., Acetone/Water (19/1)) was “FB Form I; also recorded: Freebase Form I”, the “Salt screening result (solid form)” value ([2]; Fumaric acid 1.1 eq., EtOH) was “FB Form I; also recorded: Freebase Form I” and the “Salt screening result (solid form)” value ([2]; Fumaric acid 1.1 eq., THF) was “FB Form I; also recorded: Freebase Form I”. The “Salt screening result (solid form)” value ([2]; H2SO4 1.1 eq., THF) was “Amorphous”, the “Salt screening result (solid form)” value ([2]; H3PO4 1.1 eq., Acetone/Water (19/1)) was “Amorphous *; also recorded: Amorphous” and the “Salt screening result (solid form)” value ([2]; H3PO4 1.1 eq., EtOH) was “Amorphous *; also recorded: Amorphous”. The “Salt screening result (solid form)” value ([2]; H3PO4 1.1 eq., THF) was “Amorphous *; also recorded: Amorphous”, the “Salt screening result (solid form)” value ([2]; L-Malic acid 1.1 eq., Acetone/Water (19/1)) was “Malate Form I” and the “Salt screening result (solid form)” value ([2]; L-Malic acid 1.1 eq., EtOH) was “FB Form I; also recorded: Freebase Form I”. The “Salt screening result (solid form)” value ([2]; L-Malic acid 1.1 eq., THF) was “FB Form I; also recorded: Freebase Form I”, the “Salt screening result (solid form)” value ([2]; Maleic acid 1.1 eq., Acetone/Water (19/1)) was “Maleate Form I” and the “Salt screening result (solid form)” value ([2]; PTSA 1.1 eq., Acetone/Water (19/1)) was “Tosylate Form I”. For the same molecule, the “Salt screening result (solid form)” value ([2]; PTSA 1.1 eq., EtOH) was “Amorphous”, the “Salt screening result (solid form)” value ([2]; PTSA 1.1 eq., THF) was “Amorphous” and the “Salt screening result (solid form)” value ([2]; Succinic acid 1.1 eq., Acetone/Water (19/1)) was “FB Form I; also recorded: Freebase Form I”. For the same molecule, the “Salt screening result (solid form)” value ([2]; Succinic acid 1.1 eq., EtOH) was “FB Form I; also recorded: Freebase Form I”, the “Salt screening result (solid form)” value ([2]; Succinic acid 1.1 eq., THF) was “FB Form I; also recorded: Freebase Form I” and the “Salt screening result (solid form)” value ([2]; no acid, Acetone/Water (19/1)) was “FB Form I”. For the same molecule, the “Salt screening result (solid form)” value ([2]; no acid, EtOH) was “FB Form I” and the “Salt screening result (solid form)” value ([2]; no acid, THF) was “FB Form I”.
